Measured values published in PubChem BioAssay AID248 (DTP/NCI, 2004).
The list shows only some results of the screen, not a fair sample: it gathers tests that were run many times, whatever their T/C, doses with no T/C, and many T/C values between a quarter and a half above the control. Other doses and runs of a compound stand elsewhere. T/C: endpoint of the treated group in % of that of the vehicle group. Some entries give survivors of the animals treated and no T/C: the source files T/C as zero there, which appears to mark a toxic dose or a test without result, not a measured value. Some doses without a T/C left all or most animals alive at the check, yet need not have been tolerated: the source hardly ever lists a survival T/C far under the control, and the zero likely stands for such cases as well. Survivors were counted at the toxicity check, usually on the fifth day, unless a day is given; later deaths do not show. Schedules are NCI's codes, taken here to give the interval after Q, in days (D) or hours (H), and the number of doses after X. Where survival is the endpoint, this PubChem deposit counts one and a half times the control or more as active, and values a quarter to a half above the control carry no call in these data; other NCI protocols may use other cut-offs. Some doses were run more than once; the values are given in rising order.

Tested on: L1210 leukemia ip in BDF1 mice, survival T/C
Test: NCI In Vivo Anticancer Drug Screen. Data for tumor model L1210 Leukemia (intraperitoneal) in B6D2F1 (BDF1) mice
Details: T/C endpoint: mean survival time, higher T/C = longer survival
[1] = dose: 100.0 mg/kg/injection, schedule: Q04DX003 (ip), vehicle: saline with Tween-80
[2] = dose: 200.0 mg/kg/injection, schedule: Q04DX003 (ip), vehicle: saline with Tween-80
[3] = dose: 200.0 mg/kg/injection, schedule: Q01DX001 (ip), vehicle: other
[4] = dose: 400.0 mg/kg/injection, schedule: Q04DX003 (ip), vehicle: Klucel (hydroxypropylcellulose) (HPC)
[5] = dose: 200.0 mg/kg/injection, schedule: Q01DX009 (ip), vehicle: Klucel (hydroxypropylcellulose) (HPC)
[6] = dose: 200.0 mg/kg/injection, schedule: Q04DX003 (ip), vehicle: saline
[7] = dose: 400.0 mg/kg/injection, schedule: Q04DX003 (ip), vehicle: saline
[8] = dose: 40.0 mg/kg/injection, schedule: Q01DX001 (ip), vehicle: saline
[9] = dose: 75.0 mg/kg/injection, schedule: Q01DX001 (ip), vehicle: saline
[10] = dose: 150.0 mg/kg/injection, schedule: Q01DX001 (ip), vehicle: saline
[11] = dose: 300.0 mg/kg/injection, schedule: Q01DX001 (ip), vehicle: saline
[12] = dose: 400.0 mg/kg/injection, schedule: Q04DX003 (ip), vehicle: saline with Tween-80
[13] = dose: 100.0 mg/kg/injection, schedule: Q01DX001 (ip), vehicle: saline
[14] = dose: 200.0 mg/kg/injection, schedule: Q01DX001 (ip), vehicle: saline
[15] = dose: 400.0 mg/kg/injection, schedule: Q01DX001 (ip), vehicle: saline
[16] = dose: 100.0 mg/kg/injection, schedule: Q04DX002 (ip), vehicle: Klucel (hydroxypropylcellulose) (HPC)
[17] = dose: 200.0 mg/kg/injection, schedule: Q04DX002 (ip), vehicle: Klucel (hydroxypropylcellulose) (HPC)
[18] = dose: 400.0 mg/kg/injection, schedule: Q04DX002 (ip), vehicle: Klucel (hydroxypropylcellulose) (HPC)
[19] = dose: 100.0 mg/kg/injection, schedule: Q01DX009 (ip), vehicle: saline
[20] = dose: 400.0 mg/kg/injection, schedule: Q04DX002 (ip), vehicle: saline
[21] = dose: 100.0 mg/kg/injection, schedule: Q01DX009 (ip), vehicle: Klucel (hydroxypropylcellulose) (HPC)
[22] = dose: 400.0 mg/kg/injection, schedule: Q01DX009 (ip), vehicle: Klucel (hydroxypropylcellulose) (HPC)

Structure (SMILES): COc1ccc(S(=O)Nc2ccccc2)cc1 (stereo not drawn)
- survivor count [1]: 3 of 6
- survivor count [2]: 2 of 6

Structure (SMILES): N#CC1(O)C(Cl)(Cl)CCCC1(Cl)Cl
- survivor count (dose: 50.0 mg/kg/injection, schedule: Q01DX009 (ip), vehicle: saline with Tween-80): 0 of 3
- survivor count (dose: 100.0 mg/kg/injection, schedule: Q01DX009 (ip), vehicle: saline with Tween-80): 0 of 3
- survivor count (dose: 200.0 mg/kg/injection, schedule: Q01DX009 (ip), vehicle: saline with Tween-80): 0 of 3

Structure (SMILES): CSc1ncnc2c1nc[n]2[Sn]([c]1ccccc1)([c]1ccccc1)[c]1ccccc1.CSc1ncnc2nc[nH]c12
- survivor count (dose: 40.0 mg/kg/injection, schedule: Q01DX001 (ip), vehicle: other): 3 of 6
- survivor count (dose: 80.0 mg/kg/injection, schedule: Q01DX001 (ip), vehicle: other): 3 of 6
- survivor count (dose: 100.0 mg/kg/injection, schedule: Q01DX001 (ip), vehicle: other): 1 of 6
- survivor count [3]: 0 of 6
- survivor count (dose: 400.0 mg/kg/injection, schedule: Q01DX001 (ip), vehicle: other): 0 of 6

Structure (SMILES): N#CCCN(CCC#N)[N+](=O)[O-]
- survivor count (dose: 350.0 mg/kg/injection, schedule: Q01DX009 (ip), vehicle: Klucel (hydroxypropylcellulose) (HPC)): 2 of 6

Structure (SMILES): CCOC(=O)CC(C)(C)NCc1ccccc1
- survivor count (dose: 200.0 mg/kg/injection, schedule: Q04DX003 (ip), vehicle: Klucel (hydroxypropylcellulose) (HPC)): 0 of 6
- survivor count [4]: 0 of 6

Structure (SMILES): O=C1C=C(NCCc2cnc[nH]2)c2ccccc2C1=O
- survivor count [5]: 3 of 3

Structure (SMILES): Cc1cccnc1C
- T/C (dose: 20.0 mg/kg/injection, schedule: Q04DX003 (ip), vehicle: saline): 131 % of control
- survivor count [6]: 6 of 6
- survivor count [7]: 1 of 6

Structure (SMILES): CCOP(=O)(OCC)Oc1ccc([N+](=O)[O-])c(CC)c1
- survivor count (dose: 20.0 mg/kg/injection, schedule: Q01DX001 (ip), vehicle: saline): 3 of 6
- survivor count [8]: 0 of 6
- survivor count [9]: 0 of 6
- survivor count (dose: 80.0 mg/kg/injection, schedule: Q01DX001 (ip), vehicle: saline): 0 of 6
- survivor count [10]: 0 of 6
- survivor count [11]: 0 of 6

Structure (SMILES): CN(C)N=Nc1nn(C2CCCO2)cc1C(N)=O (stereo not drawn)
- T/C (dose: 50.0 mg/kg/injection, schedule: Q01DX005 (ip), vehicle: saline): 129 % of control
- T/C (dose: 100.0 mg/kg/injection, schedule: Q01DX005 (ip), vehicle: saline): 141 % of control
- T/C (dose: 200.0 mg/kg/injection, schedule: Q01DX005 (ip), vehicle: saline): 134 and 142 % of control

Structure (SMILES): c1ccc(COC2CN3CCC2CC3)cc1 (stereo not drawn)
- survivor count [2]: 2 of 6
- survivor count [12]: 0 of 6

Structure (SMILES): CC(=O)CC(=O)CF.CC(=O)CC(=O)CF.[Cu]
- survivor count (dose: 6.0 mg/kg/injection, schedule: Q01DX001 (ip), vehicle: saline): 3 of 6
- survivor count (dose: 50.0 mg/kg/injection, schedule: Q01DX001 (ip), vehicle: saline): 0 of 6
- survivor count [13]: 0 of 6
- survivor count [14]: 0 of 6

Structure (SMILES): CCCSCCN=C(N)C(N)=NCCSCCC
- survivor count (dose: 200.0 mg/kg/injection, schedule: Q04DX002 (ip), vehicle: saline with Tween-80): 0 of 3
- survivor count (dose: 400.0 mg/kg/injection, schedule: Q04DX002 (ip), vehicle: saline with Tween-80): 0 of 3

Structure (SMILES): Nc1nc(CCCCc2ccc(NC(=O)CBr)cc2)c(CCCCc2ccccc2)c(=O)[nH]1
- survivor count (dose: 50.0 mg/kg/injection, schedule: Q04DX003 (ip), vehicle: saline with Tween-80): 6 of 6
- survivor count [13]: 2 of 6
- survivor count [1]: 3 of 6
- survivor count [14]: 0 of 4
- survivor count [2]: 1 of 6
- survivor count [15]: 0 of 4
- survivor count [12]: 0 of 6

Structure (SMILES): Cc1ccc(NC(=O)CS)cc1
- survivor count [12]: 0 of 6

Structure (SMILES): CSc1cccc(N2C(=O)C=CC2=O)c1
- survivor count (dose: 20.0 mg/kg/injection, schedule: Q04DX002 (ip), vehicle: Klucel (hydroxypropylcellulose) (HPC)): 0 of 3
- survivor count (dose: 40.0 mg/kg/injection, schedule: Q04DX002 (ip), vehicle: Klucel (hydroxypropylcellulose) (HPC)): 0 of 3
- survivor count [16]: 0 of 3
- survivor count [17]: 0 of 3
- survivor count [18]: 0 of 3

Structure (SMILES): N#Cc1cnn(C(N)=S)c1N
- survivor count [19]: 2 of 6
- survivor count [6]: 1 of 6
- survivor count [7]: 0 of 6

Structure (SMILES): CC(C)CNCc1cc(Nc2ccnc3cc(Cl)ccc23)ccc1O
- survivor count [20]: 0 of 3

Structure (SMILES): O=C1N(c2ccccc2)C(=O)N1c1ccccc1
- survivor count [4]: 6 of 6

Structure (SMILES): NC(c1ccccc1)C(N)c1ccccc1 (stereo not drawn)
- survivor count (dose: 200.0 mg/kg/injection, schedule: Q04DX003 (ip), vehicle: other): 6 of 6
- survivor count (dose: 400.0 mg/kg/injection, schedule: Q04DX003 (ip), vehicle: other): 0 of 6
- survivor count [12]: 3 of 6

Structure (SMILES): S=C1N/N=C/NN/C=N/N1
- survivor count [8]: 0 of 6
- survivor count [9]: 0 of 6
- survivor count [10]: 0 of 6
- survivor count [11]: 0 of 6

Structure (SMILES): CCCP(=O)(CCC)CCC
- survivor count (dose: 100.0 mg/kg/injection, schedule: Q01DX001 (ip), vehicle: saline with Tween-80): 2 of 6
- survivor count (dose: 200.0 mg/kg/injection, schedule: Q01DX001 (ip), vehicle: saline with Tween-80): 0 of 6
- survivor count (dose: 400.0 mg/kg/injection, schedule: Q01DX001 (ip), vehicle: saline with Tween-80): 0 of 6

Structure (SMILES): CCN(CC)CCCOC(=O)c1ccc(NC(C)(C)[N+](=O)[O-])cc1
- survivor count [19]: 1 of 6
- survivor count [14]: 0 of 6
- survivor count [15]: 0 of 6

Structure (SMILES): O=S(=O)(O)F
- survivor count [15]: 2 of 6

Structure (SMILES): COC1OC(COC(C)=O)C(OC(C)=O)C(OC(C)=O)[CH]1[Hg][S]c1ccccc1 (stereo not drawn)
- survivor count (dose: 32.0 mg/kg/injection, schedule: Q01DX015 (ip), vehicle: carboxymethylcellulose (CMC)): 0 of 6

Structure (SMILES): CSc1nc2c(c(=O)[nH]1)C1C=C(C)CCC1C(C)(C)C2 (stereo not drawn)
- survivor count [18]: 0 of 3

Structure (SMILES): O=[N+]([O-])/C(=C/c1ccccc1)c1ccccc1
- survivor count [15]: 0 of 4

Structure (SMILES): CC1=CC(=Nc2ccc(N(CCCl)CCCl)cc2)C=CC1=O
- survivor count [21]: 3 of 3
- survivor count [5]: 3 of 3

Structure (SMILES): CNC(=O)Oc1ccc2c(C)cc(=O)oc2c1
- survivor count [20]: 2 of 3

Structure (SMILES): COc1ccccc1OCCOCCN(C)C1CCCCC1
- survivor count [21]: 0 of 6
- survivor count [16]: 2 of 3
- survivor count [5]: 0 of 6
- survivor count [22]: 0 of 6

Structure (SMILES): CC(=O)OCCC/C(=C\c1ccc(Br)cc1)[N+](=O)[O-]
- survivor count (dose: 400.0 mg/kg/injection, schedule: Q01DX001 (ip), vehicle: carboxymethylcellulose (CMC)): 3 of 6

Structure (SMILES): CSc1cc(C)[o+]c(C)c1
- survivor count [15]: 1 of 4
- survivor count [22]: 0 of 10

Structure (SMILES): O=C1c2cccc3cccc(c23)C(=O)N1CCCCCCCCCCN1C(=O)c2cccc3cccc(c23)C1=O
- survivor count (dose: 200.0 mg/kg/injection, schedule: Q01DX009 (ip), vehicle: gum acacia): 6 of 6

Structure (SMILES): O=C(CCCC(=O)N/N=C/C1CC=CCC1)N/N=C\C1CC=CCC1 (stereo not drawn)
- survivor count [3]: 4 of 4

Structure (SMILES): NCC12CC3CC(CC(C3)C1)C2
- survivor count [17]: 0 of 3
- survivor count [18]: 0 of 3
